This data set has as its system VERO cells. The experiment in a line: Cytotoxicity assay in Vero cells (MTT). The format is cell-based, African green monkeys. Particulars: CC50 VERO cells / IC50 L. amazonensis. As for the experimental part: Cytotoxicity was also evaluated using Vero cells, a monkey kidney cell line obtained from the American Type Culture Collection (ATCC CCL-81; Manassas, VA). The cytotoxicity was determined by the 3-(4,5dimethylthiazol- 2-yl)-2,5-diphenyltetrazolium bromide (MTT) method according to a previously described procedure.
In all cases, the CC50 was calculated as described as in the Antileishmanial assay Section.
Selectivity indexes (SI) were calculated by dividing CC50 against each mammalian cell line by the IC50 against L. amazonensis (CC50/IC50).

The record followed here is PMC6131760, “4-Phenyl-1,3-thiazole-2-amines as scaffolds for new antileishmanial agents” (The Journal of Venomous Animals and Toxins Including …, 2018).

On to `CCc1ccc(-c2csc(N)n2)cc1` [Compound 3], for which the SI was 26.11.
